Laboratory results from patent US20230285516A1 (priority 2020, published 2023).
Some of these results come from one statement about several compounds together.

Tested on: Th17 (CD4+/IL-17+) cells
Test: FACS of spleen Th17 cells in CIA models
Assay type: in vivo, mice
Method: Early Arthritis Model. Fifty mice with the same characteristics were immunized at the base of the tail with 100 μg of chicken type II collagen emulsified in complete Freund's adjuvant. The boost was applied on day 21 at the base of the tail with 100 μg of type II collagen emulsified with Freund's incomplete adjuvant. On the same boosting day, the treatments (a-d) were applied every week for six weeks. Three animals were euthanized in the sixth week and three in the thirteenth week. The spleen, lymph nodes, joint tissue, liver, lungs, kidneys and heart were obtained in order to assess the inflammatory infiltrate, the predominant cell populations and the expression of pro- and anti-inflammatory cytokines.
Established Arthritis Model. Arthritis was induced as in the previous model in 50 mice and the treatments were applied intramuscularly, after 2 weeks of the boost, every week for 6 weeks. Three animals were euthanized in the eighth week and three in the fifteenth week. The spleen, lymph nodes, joint tissue, liver, lungs, kidneys and heart were obtained in order to assess the inflammatory infiltrate, the predominant cell populations and the expression of pro- and anti-inflammatory cytokines.
Cytometric evaluation. Using FACS, the percentage of populations of Th1 ([…]), Th2 (CD4^+/IL-4^+), Treg (CD4^+/FOXP3^+) Th17 (CD4^+/IL-17^+) and dendritic (CD4−/CD11c^+) cells in spleen cells.
FIG. 10. Effect of type I polymerized collagen in the early (preventive) and long-standing (late or palliative) arthritis model on the percentage of spleen CD4+ T cell subpopulations. (A) Spleen cells obtained ex vivo in the early arthritis model during the first sacrifice. (B) Spleen cells obtained ex vivo in the early arthritis model during the second sacrifice. (C) Spleen cells obtained ex vivo in the long-standing arthritis model during the first sacrifice. […] The intracellular production of IL-17A, IL-4, IFN-γ and Foxp3 by CD4+ T cells was detected by flow cytometry. The results are representative of 6 mice analyzed in each group. […]

CN(Cc1cnc2nc(N)nc(N)c2n1)c1ccc(C(=O)N[C@@H](CCC(=O)O)C(=O)O)cc1 [MTX, methotrexate, reference compound]
percentage of spleen Th17 cells (early arthritis model, first sacrifice): 1.0-1.4% | percentage of spleen Th17 cells (early arthritis model, second sacrifice): 0.9-1.35% | percentage of spleen Th17 cells (long-standing arthritis model, second sacrifice): 0.9-1.45%
